Measurements reported in the supplement of paper PMC10849652.
This is one part of the list.

Protein sequences, listed by entry. Tags and fused reporters are not part of them. Lines headed by an entry give the natural chain unless they say otherwise; changes in a name come on top.
UniProt P29353: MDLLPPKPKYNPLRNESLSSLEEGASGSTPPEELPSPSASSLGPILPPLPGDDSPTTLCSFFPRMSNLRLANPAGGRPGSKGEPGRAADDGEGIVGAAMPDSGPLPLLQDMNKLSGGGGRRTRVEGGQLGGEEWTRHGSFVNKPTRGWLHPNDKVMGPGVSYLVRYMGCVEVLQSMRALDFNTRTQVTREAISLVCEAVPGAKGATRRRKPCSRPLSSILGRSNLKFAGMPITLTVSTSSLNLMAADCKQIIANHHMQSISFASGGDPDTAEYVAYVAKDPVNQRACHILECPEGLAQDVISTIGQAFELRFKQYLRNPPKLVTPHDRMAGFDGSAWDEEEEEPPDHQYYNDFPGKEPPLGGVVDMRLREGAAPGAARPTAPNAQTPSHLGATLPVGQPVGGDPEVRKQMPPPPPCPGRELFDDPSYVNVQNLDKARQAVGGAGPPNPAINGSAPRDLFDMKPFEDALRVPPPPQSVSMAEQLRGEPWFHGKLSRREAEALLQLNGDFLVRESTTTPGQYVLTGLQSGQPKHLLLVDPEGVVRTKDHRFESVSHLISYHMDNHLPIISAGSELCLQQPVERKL
UniProt P30740: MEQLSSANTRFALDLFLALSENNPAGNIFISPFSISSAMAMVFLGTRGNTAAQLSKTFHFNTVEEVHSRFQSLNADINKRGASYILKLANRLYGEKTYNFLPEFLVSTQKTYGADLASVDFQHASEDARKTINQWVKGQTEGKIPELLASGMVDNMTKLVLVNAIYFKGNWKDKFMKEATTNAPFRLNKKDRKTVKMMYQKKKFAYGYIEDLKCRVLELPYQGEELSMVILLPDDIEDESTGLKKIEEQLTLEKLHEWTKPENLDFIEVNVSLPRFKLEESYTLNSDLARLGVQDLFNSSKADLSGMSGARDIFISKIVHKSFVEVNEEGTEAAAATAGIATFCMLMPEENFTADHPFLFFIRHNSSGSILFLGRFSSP
UniProt Q9NVA2: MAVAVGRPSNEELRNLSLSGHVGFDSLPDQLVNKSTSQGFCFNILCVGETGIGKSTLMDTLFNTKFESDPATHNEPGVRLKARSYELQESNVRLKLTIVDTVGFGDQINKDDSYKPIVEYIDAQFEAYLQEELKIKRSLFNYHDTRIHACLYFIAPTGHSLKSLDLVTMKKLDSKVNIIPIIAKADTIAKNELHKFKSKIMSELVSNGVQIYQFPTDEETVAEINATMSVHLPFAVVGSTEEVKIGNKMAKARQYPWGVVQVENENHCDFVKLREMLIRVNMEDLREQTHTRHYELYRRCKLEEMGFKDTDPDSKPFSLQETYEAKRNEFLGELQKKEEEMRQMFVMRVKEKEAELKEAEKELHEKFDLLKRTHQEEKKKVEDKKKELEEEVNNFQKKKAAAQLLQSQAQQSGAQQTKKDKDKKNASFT
UniProt O75533, whole entry, looked up: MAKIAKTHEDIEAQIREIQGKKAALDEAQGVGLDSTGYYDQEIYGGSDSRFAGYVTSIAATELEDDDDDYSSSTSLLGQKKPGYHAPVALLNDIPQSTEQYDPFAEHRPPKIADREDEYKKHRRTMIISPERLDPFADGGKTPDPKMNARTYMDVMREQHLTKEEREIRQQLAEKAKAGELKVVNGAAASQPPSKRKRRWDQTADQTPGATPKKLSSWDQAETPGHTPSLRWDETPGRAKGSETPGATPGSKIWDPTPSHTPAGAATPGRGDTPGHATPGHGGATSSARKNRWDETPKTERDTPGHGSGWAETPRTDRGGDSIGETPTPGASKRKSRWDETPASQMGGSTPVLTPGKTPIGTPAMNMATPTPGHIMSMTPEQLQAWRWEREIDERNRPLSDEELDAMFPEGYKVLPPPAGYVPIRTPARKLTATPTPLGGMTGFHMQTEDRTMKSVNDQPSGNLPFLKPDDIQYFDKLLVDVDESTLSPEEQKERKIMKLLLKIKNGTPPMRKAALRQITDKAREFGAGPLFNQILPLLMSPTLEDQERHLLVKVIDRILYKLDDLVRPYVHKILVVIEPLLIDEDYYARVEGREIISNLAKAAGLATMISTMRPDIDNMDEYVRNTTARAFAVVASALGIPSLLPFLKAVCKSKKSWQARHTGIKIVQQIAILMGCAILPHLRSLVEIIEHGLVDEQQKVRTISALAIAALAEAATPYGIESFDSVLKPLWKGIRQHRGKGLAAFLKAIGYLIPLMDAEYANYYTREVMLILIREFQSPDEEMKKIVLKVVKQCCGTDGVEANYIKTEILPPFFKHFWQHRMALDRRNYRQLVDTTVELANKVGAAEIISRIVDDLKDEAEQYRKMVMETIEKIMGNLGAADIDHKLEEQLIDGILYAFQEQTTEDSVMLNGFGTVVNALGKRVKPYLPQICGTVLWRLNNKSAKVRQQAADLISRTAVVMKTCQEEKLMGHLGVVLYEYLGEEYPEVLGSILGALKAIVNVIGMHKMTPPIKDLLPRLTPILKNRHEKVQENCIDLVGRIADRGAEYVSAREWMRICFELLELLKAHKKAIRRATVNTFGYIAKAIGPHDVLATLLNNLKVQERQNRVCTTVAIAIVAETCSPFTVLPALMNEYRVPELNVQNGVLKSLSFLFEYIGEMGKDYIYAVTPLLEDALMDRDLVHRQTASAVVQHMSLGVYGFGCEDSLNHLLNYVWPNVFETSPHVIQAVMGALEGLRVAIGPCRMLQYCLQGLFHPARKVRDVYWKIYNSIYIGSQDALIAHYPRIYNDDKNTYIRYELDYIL
UniProt Q15637: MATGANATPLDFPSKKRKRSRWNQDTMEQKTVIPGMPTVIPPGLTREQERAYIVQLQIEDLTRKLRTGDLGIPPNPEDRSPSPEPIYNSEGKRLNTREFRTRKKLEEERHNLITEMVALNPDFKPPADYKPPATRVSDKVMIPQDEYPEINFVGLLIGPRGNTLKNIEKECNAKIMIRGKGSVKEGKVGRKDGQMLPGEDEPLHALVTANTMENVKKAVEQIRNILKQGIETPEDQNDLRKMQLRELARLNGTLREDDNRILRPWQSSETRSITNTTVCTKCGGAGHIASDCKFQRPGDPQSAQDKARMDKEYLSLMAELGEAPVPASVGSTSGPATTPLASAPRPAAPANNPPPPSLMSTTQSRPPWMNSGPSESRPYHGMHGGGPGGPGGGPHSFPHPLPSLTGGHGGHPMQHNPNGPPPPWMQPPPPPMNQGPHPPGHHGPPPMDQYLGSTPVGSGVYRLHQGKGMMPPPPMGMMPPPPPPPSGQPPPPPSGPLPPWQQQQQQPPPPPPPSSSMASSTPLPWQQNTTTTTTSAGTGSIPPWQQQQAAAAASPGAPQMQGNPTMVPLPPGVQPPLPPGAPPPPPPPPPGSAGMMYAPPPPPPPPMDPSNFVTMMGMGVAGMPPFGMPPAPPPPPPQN
UniProt O60613, whole entry, looked up: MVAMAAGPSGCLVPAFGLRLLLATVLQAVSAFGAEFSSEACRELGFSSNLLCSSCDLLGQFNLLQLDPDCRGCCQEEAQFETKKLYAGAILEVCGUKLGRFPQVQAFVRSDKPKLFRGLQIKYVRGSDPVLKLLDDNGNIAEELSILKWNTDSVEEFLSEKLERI
UniProt Q68CR1: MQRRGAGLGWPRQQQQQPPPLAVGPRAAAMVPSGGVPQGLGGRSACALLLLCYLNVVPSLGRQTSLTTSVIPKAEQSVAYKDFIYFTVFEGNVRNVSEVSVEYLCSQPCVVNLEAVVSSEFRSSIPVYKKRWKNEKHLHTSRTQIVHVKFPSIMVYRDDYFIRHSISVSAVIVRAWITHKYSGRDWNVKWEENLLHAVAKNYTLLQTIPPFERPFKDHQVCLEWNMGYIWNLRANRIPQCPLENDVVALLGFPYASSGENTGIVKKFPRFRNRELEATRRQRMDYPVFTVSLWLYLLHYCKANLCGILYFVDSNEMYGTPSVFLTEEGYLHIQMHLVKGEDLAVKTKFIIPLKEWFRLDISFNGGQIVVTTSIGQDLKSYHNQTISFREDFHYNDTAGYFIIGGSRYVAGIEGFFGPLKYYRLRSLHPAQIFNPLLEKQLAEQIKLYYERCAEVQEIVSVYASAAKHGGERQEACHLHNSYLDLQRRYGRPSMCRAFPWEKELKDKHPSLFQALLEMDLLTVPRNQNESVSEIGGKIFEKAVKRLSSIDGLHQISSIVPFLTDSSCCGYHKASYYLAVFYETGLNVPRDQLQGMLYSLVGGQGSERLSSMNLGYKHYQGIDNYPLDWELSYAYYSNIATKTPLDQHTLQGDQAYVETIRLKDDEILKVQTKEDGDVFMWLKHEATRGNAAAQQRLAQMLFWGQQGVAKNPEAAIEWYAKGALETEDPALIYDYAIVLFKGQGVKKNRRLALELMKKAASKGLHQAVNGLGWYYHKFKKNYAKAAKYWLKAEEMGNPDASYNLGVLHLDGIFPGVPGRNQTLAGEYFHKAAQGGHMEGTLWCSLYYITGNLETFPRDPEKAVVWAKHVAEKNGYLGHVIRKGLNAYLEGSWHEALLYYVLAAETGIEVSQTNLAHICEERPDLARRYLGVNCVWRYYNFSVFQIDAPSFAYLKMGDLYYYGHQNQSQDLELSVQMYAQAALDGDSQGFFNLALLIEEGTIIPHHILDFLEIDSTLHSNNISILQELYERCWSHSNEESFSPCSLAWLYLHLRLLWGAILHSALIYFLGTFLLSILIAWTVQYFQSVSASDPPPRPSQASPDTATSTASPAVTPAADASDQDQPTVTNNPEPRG
UniProt Q9UJC5: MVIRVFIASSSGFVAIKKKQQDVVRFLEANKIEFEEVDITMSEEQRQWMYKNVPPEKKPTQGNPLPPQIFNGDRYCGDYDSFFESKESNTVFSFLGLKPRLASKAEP
UniProt Q99720, whole entry, looked up: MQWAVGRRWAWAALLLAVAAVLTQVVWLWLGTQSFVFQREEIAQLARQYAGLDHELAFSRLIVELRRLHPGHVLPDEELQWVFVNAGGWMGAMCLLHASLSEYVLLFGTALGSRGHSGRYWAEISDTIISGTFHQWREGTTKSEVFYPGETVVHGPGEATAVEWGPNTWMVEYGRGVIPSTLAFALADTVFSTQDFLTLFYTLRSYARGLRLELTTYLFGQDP
UniProt P50452: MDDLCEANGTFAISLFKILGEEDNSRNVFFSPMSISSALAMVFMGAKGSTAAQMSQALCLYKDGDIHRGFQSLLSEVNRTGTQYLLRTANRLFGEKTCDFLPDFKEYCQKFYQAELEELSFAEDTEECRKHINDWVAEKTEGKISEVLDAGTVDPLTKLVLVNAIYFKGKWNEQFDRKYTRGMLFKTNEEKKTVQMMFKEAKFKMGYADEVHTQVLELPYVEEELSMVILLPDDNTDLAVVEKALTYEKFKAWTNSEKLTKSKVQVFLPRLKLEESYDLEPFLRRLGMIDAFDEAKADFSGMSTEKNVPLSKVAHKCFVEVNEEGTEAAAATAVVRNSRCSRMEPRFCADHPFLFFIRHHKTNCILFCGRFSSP
UniProt Q86VZ5: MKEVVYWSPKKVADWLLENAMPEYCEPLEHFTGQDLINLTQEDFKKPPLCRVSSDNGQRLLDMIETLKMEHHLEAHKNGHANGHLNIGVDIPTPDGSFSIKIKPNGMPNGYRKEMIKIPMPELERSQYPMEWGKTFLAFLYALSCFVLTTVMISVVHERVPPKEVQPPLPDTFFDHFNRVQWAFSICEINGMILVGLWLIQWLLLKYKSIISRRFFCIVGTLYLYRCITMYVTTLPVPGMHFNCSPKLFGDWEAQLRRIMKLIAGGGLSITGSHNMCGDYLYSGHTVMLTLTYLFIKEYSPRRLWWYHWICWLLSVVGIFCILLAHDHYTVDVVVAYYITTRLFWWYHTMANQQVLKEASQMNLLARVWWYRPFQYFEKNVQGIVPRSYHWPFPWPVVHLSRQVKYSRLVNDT
UniProt Q16181: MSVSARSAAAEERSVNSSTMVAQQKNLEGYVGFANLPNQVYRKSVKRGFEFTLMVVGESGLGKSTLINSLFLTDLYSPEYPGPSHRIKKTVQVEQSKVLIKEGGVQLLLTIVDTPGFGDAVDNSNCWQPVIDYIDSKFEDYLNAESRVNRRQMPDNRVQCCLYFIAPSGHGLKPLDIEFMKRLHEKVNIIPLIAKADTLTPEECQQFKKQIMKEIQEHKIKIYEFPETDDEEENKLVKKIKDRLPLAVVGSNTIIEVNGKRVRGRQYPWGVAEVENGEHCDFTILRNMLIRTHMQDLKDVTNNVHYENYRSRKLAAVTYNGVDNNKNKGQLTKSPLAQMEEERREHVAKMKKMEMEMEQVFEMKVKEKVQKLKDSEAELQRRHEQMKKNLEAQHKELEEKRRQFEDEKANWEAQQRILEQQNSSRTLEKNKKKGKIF
UniProt Q8NC51: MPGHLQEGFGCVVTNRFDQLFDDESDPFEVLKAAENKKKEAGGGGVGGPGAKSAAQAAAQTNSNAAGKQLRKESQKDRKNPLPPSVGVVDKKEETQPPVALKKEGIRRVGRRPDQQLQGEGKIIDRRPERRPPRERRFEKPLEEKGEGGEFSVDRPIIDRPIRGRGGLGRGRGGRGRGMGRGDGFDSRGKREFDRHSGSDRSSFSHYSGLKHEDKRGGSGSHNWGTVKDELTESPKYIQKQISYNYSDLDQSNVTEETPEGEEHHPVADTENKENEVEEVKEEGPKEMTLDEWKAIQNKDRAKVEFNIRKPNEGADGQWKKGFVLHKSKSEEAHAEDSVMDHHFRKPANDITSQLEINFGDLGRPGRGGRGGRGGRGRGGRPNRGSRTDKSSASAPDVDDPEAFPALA

What follows are targets tested with NC(=O)Nc1cc(-c2cccc(F)c2)sc1C(=O)N[C@H]1CCCNC1 (assay: log2 fold change, soluble protein after heating vs DMSO (PISA); higher = thermal stabilisation; K562 cells, 10 uM, 30 min; active = over 0.2 and 3.5 SD of the protein, either way, in both replicates (recomputed)).
Method in brief: (§1)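 K562 cells at 2×10^6 cells/mL were treated with 10 μM compound for 30 min. Aliquots were heated for 3 min across 48°C-58°C, pooled, and extracted in PBS with 0.5% NP-40 at 4°C; soluble protein was the supernatant after 21,000xg for 90 min. Soluble protein was quantified by TMTpro 16plex LC-MS/MS with channel sums equalised, and reported as log2 fold change in thermal stability against DMSO controls, with values from duplicates.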

log2 fold change, inactive:
SHC1 isoform 6 (UniProt P29353) -0.024
SEC61B (UniProt P60468) -0.069
SF3A3 (UniProt Q12874) 0.044
SERPINB1 (UniProt P30740) 0.004
SH3BGRL3 (UniProt Q9H299) -0.028
SETDB1 (UniProt Q15047) 0.075
SEPTIN11 isoform 2 (UniProt Q9NVA2) -0.008
SERPINB6, A0A087X1N8 0.019
SF3B6 (UniProt Q9Y3B4) 0.05
SF3B3 (UniProt Q15393) -0.037
SIRT6 (UniProt Q8N6T7) -0.147
SF3B1 (UniProt O75533) 0.02
SFN (UniProt P31947) -0.035
SF1 isoform 6 (UniProt Q15637) -0.202
SELENOF (UniProt O60613) -0.041
SERPINC1 (UniProt P01008) -0.114
SEL1L3 (UniProt Q68CR1) -0.025
SF1 isoform 5 (UniProt Q15637) -0.018
SH3BGRL2 (UniProt Q9UJC5) 0.022
SEMA4C (UniProt Q9C0C4) -0.016
SEPTIN9 (UniProt Q9UHD8) -0.013
SH3BP1 (UniProt Q9Y3L3) 0.006
SF3B2 (UniProt Q13435) 0.025
SIGMAR1 (UniProt Q99720) 0.081
SELENBP1 isoform 4 (UniProt Q13228) 0.078
SEPTIN10 isoform 2 (UniProt Q9P0V9) 0.026
SIRT5 (UniProt Q9NXA8) -0.002
SEPTIN6 (UniProt Q14141) 0.041
SERPINB8 (UniProt P50452) -0.007
SGTB (UniProt Q96EQ0) -0.012
SEC62 (UniProt Q99442) -0.047
SEL1L (UniProt Q9UBV2) 0.005
SEC61A2 (UniProt Q9H9S3) 0.038
SGMS1 (UniProt Q86VZ5) -0.058
SFSWAP isoform 2 (UniProt Q12872) -0.054
SEPTIN7 (UniProt Q16181) -0.029
SEC61A1 (UniProt P61619) -0.04
SHOC2 (UniProt Q9UQ13) -0.009
SERBP1 (UniProt Q8NC51) -0.006
SH3GLB1 isoform 2 (UniProt Q9Y371) -0.078

What follows are targets tested with NC(=O)c1cnc(N[C@@H]2CCCC[C@@H]2N)nc1Nc1cccc(-n2nccn2)c1 in the same assay as above.
Method in brief: as §1

log2 fold change, inactive:
SHC1 isoform 6 (UniProt P29353) -0.026
SEC61B (UniProt P60468) -0.023
SF3A3 (UniProt Q12874) -0.05
SERPINB1 (UniProt P30740) -0.044
SH3BGRL3 (UniProt Q9H299) -0.062
SETDB1 (UniProt Q15047) -0.066
SEPTIN11 isoform 2 (UniProt Q9NVA2) -0.036
SERPINB6, A0A087X1N8 0.001
SF3B6 (UniProt Q9Y3B4) -0.042
SF3B3 (UniProt Q15393) -0.048
SIRT6 (UniProt Q8N6T7) 0.094
SF3B1 (UniProt O75533) -0.06
SFN (UniProt P31947) -0.064
SF1 isoform 6 (UniProt Q15637) 0.071
SELENOF (UniProt O60613) -0.063
SERPINC1 (UniProt P01008) 0.098
SEL1L3 (UniProt Q68CR1) 0.009
SF1 isoform 5 (UniProt Q15637) -0.004
SH3BGRL2 (UniProt Q9UJC5) -0.045
SEMA4C (UniProt Q9C0C4) 0.048
SEPTIN9 (UniProt Q9UHD8) -0.061
SH3BP1 (UniProt Q9Y3L3) -0.033
SF3B2 (UniProt Q13435) 0.004
SIGMAR1 (UniProt Q99720) 0.082
SELENBP1 isoform 4 (UniProt Q13228) 0.051
SEPTIN10 isoform 2 (UniProt Q9P0V9) 0.038
SIRT5 (UniProt Q9NXA8) 0.006
SEPTIN6 (UniProt Q14141) 0
SERPINB8 (UniProt P50452) 0.09
SGTB (UniProt Q96EQ0) -0.084
SEC62 (UniProt Q99442) 0.092
SEL1L (UniProt Q9UBV2) -0.024
SEC61A2 (UniProt Q9H9S3) -0.013
SGMS1 (UniProt Q86VZ5) 0.048
SFSWAP isoform 2 (UniProt Q12872) -0.031
SEPTIN7 (UniProt Q16181) 0.036
SEC61A1 (UniProt P61619) -0.017
SHOC2 (UniProt Q9UQ13) 0.009
SERBP1 (UniProt Q8NC51) -0.045
SH3GLB1 isoform 2 (UniProt Q9Y371) -0.137
